In US12070458B2, “Therapeutic agent composition and method of use, for treatment of mild congnitive impairment, depression, and psychological disorders” (priority 2018, dated 2024):
At least one compound was matched to its structure with a doubt left.

Columns and labels:
[1] = test system: cerebellar microexplants (P4); assay: Glutamate induced neuronal death in cerebellar microexplants (P4); assay type: cell-based, Wistar rats
Method: Cerebellar Cell Culture Preparing and Coating of Cover Slips
Ten coverslips were placed into a large petri dish and washed in 70% alcohol for 5 minutes, then washed with Millipore H2O. The coverslips were air dried, then coated with Poly-D-Lysine (1 mg/ml stock solution in PBS, 90-100 μl) and incubated for 2 hours at 34° C.
Postnatal day 4 Wistar rats were used for the study. Rats were placed in ice for 1 minute, the heads were decapitated and the cerebellum removed on ice. Cerebellum tissue was placed in 1 ml of 0.65% glucose supplemented PBS (10 μl 65% stock D (+)glucose/1 ml PBS) in a large petri dish, chopped up into smaller sections and triturate with a 1 ml insulin syringe via a 23 G (0.4 mm) needle, and then squirted back into the glucose solution on the large petri dish. The tissue was sieved through (125 μm pore size gaze) and centrifuged (2 minutes at 60 g) two times for a medium exchange into serum-free BSA-supplemented START V medium (Biochrom). The second centrifugation step was done with 1 ml of START V medium. The microexplants were reconstituted into 500 μl of START V medium and put on ice.
Cultivation and Fixation of Cerebellar Cells
Two hours after PDL-coating, the slides were washed with Millipore H2O and air dried. Each slide was placed into a small 35 mm petri dish and 40 μl of START V/cell suspension added. The tissue was incubated for 2 hours at 34° C. […]

[2] = test system: BrdU positive cells in sub ventricular zone and dentate gyrus; assay: Neurogenesis by BrdU co-administration (sub ventricular zone, dentate gyrus); assay type: in vivo, Wistar rats; details: 10 mg/kg i.p. in 0.1% RSA twice daily for 7 days, compared to sham injected
Method: Male Wistar rats weighing about 250-270 g (not newborn) were used. All animal experiments were conducted in agreement with national and international guidelines. Care was taken to minimize suffering for the animals. Animals were allowed to acclimatize for 1 week before start of the studies. Animals were housed under standardized conditions with normal tight-dark periods and in groups of five animals per cage. Animals had access to food and water ad libitum during the studies.
Three neurogenesis modulating agents, cPG, c(PG)3 and cGMeP were separately administered intraperitoneally to Male Wistar rats (N=10) at 10 mg/kg in Rat Serum Albumin (RSA). The negative control (n=12), the vehicle group was injected with saline (in 0.1% RSA). Bromodeoxyuridine (Brd1J; 50 mg/kg) was co-administrated together with the compounds. The intraperitoneally injections were given with a 12 hour interval for 7 days. Animals were perfused on day 8. The rats were kept at 12 hours light/dark regime. In perfusion, animals were perfused transcranially with 50 ml of ice cold phosphate buffered saline (PBS) and then 100 ml of 4% paraformaldehyde in PBS. Brains were fixed after removal in 4% paraformaldehyde in PBS for 24 hours at 4° C. at least 3 days before sectioning. The procedures of transcranial infusion consist the following steps: […]

CC12CCCN1C(=O)CNC2=O [cGMeP, (8aS)-Methyl-hexahydropyrrolo[1,2-a]pyrazine-1,4-dione]
neuron number compared to the normal control group ([1]; a further lower dose): significant increase
recovery from glutamate-induced neurotoxicity ([1]; lower doses 10-100 nM, simultaneously with glutamate): significant recovery
number of newborn cells (BrdU positive) in sub ventricular zone and dentate gyrus [2]: significant increase
